# Test results as given in the supplement of paper PMC10849652.
# Protein sequences, listed by entry. Tags and fused reporters are not part of them. Lines headed by an entry give the natural chain unless they say otherwise; changes in a name come on top.
# UniProt P21359: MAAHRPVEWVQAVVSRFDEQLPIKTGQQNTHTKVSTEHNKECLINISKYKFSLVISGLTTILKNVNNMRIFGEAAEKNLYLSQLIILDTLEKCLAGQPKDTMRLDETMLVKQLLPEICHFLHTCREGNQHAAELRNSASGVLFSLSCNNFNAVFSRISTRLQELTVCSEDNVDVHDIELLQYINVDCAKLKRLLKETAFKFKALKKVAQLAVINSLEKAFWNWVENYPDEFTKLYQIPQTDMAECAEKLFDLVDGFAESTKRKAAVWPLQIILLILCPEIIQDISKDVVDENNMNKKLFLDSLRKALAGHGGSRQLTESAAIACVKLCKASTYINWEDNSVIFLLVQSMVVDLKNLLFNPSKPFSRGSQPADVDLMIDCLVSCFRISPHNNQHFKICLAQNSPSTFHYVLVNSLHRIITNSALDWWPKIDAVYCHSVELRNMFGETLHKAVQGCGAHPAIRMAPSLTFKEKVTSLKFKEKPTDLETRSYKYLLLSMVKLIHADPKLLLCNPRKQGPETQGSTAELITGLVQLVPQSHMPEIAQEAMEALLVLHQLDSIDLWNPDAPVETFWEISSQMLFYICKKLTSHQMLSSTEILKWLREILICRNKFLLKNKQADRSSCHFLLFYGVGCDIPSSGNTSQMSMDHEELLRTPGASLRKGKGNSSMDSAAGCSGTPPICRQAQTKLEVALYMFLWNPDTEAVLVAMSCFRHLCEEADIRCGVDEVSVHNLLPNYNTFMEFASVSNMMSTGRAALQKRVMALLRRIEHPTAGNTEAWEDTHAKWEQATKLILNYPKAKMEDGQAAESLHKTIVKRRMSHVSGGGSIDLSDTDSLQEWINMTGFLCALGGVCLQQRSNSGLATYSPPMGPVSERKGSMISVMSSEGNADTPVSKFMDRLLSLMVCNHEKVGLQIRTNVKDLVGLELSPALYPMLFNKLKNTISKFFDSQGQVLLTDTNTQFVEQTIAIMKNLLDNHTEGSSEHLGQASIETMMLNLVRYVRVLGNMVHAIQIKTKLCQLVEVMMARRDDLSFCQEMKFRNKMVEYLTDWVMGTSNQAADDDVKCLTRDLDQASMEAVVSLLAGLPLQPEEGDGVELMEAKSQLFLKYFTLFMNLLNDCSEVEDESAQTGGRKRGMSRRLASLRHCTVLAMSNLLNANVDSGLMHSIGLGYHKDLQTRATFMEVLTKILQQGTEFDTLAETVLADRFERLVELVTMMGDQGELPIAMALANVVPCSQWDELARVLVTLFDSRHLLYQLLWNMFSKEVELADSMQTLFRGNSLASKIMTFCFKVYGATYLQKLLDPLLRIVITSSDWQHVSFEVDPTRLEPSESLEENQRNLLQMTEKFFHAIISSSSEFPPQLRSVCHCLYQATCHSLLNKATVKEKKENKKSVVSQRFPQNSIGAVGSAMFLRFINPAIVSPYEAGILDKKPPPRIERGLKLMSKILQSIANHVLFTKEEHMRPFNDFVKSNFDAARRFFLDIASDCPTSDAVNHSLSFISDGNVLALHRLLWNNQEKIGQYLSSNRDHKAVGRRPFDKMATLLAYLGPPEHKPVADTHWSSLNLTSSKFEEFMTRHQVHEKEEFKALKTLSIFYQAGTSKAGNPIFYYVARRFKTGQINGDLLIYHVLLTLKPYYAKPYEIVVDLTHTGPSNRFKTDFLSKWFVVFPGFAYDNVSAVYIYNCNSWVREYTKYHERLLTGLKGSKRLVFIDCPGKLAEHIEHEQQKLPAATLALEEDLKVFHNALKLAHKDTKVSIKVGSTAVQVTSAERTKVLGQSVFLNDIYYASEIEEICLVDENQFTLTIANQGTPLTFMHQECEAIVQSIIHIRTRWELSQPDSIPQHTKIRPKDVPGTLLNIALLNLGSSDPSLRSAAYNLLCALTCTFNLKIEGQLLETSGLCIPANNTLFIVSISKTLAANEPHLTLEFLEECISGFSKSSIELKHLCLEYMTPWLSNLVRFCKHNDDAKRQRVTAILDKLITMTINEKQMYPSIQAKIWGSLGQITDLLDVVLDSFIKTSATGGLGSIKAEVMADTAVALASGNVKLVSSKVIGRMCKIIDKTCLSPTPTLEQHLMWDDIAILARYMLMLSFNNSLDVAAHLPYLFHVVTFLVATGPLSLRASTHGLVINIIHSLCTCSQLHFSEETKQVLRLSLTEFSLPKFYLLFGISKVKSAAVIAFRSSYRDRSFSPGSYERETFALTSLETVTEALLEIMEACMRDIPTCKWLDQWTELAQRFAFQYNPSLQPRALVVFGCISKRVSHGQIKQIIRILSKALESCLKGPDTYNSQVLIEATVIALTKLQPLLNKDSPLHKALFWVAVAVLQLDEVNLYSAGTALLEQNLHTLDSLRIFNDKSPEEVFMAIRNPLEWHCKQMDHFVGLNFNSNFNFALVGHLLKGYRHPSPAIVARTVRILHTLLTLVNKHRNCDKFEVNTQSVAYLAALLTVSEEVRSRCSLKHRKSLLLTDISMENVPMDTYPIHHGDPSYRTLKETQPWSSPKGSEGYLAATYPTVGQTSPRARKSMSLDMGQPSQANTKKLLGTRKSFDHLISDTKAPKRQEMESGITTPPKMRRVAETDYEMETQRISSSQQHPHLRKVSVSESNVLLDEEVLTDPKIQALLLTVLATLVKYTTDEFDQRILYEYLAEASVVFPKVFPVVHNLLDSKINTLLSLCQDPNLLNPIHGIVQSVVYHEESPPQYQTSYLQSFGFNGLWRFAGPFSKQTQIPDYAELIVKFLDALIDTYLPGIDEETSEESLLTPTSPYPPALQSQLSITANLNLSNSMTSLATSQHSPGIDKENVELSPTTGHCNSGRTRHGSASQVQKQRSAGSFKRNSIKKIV
# UniProt P30419: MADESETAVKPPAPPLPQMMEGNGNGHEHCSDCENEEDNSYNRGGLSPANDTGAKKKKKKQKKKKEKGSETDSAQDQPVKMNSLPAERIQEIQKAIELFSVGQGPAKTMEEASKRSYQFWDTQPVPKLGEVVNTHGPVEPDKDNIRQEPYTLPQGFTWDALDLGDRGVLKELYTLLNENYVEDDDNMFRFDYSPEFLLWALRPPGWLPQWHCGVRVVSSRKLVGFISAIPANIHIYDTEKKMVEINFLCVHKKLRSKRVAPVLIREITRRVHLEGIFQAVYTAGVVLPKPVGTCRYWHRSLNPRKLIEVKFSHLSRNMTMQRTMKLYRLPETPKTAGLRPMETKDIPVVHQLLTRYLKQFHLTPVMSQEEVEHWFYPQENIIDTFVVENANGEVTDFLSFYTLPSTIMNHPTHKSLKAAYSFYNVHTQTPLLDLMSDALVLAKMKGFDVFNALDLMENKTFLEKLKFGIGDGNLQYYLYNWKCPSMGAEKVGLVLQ
# UniProt P16083: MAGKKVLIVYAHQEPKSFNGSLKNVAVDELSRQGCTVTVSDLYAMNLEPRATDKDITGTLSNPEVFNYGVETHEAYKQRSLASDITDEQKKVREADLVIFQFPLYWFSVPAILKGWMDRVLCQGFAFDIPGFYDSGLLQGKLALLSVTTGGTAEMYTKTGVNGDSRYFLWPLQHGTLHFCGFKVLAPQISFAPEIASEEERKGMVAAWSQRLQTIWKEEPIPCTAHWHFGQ
# UniProt P48681: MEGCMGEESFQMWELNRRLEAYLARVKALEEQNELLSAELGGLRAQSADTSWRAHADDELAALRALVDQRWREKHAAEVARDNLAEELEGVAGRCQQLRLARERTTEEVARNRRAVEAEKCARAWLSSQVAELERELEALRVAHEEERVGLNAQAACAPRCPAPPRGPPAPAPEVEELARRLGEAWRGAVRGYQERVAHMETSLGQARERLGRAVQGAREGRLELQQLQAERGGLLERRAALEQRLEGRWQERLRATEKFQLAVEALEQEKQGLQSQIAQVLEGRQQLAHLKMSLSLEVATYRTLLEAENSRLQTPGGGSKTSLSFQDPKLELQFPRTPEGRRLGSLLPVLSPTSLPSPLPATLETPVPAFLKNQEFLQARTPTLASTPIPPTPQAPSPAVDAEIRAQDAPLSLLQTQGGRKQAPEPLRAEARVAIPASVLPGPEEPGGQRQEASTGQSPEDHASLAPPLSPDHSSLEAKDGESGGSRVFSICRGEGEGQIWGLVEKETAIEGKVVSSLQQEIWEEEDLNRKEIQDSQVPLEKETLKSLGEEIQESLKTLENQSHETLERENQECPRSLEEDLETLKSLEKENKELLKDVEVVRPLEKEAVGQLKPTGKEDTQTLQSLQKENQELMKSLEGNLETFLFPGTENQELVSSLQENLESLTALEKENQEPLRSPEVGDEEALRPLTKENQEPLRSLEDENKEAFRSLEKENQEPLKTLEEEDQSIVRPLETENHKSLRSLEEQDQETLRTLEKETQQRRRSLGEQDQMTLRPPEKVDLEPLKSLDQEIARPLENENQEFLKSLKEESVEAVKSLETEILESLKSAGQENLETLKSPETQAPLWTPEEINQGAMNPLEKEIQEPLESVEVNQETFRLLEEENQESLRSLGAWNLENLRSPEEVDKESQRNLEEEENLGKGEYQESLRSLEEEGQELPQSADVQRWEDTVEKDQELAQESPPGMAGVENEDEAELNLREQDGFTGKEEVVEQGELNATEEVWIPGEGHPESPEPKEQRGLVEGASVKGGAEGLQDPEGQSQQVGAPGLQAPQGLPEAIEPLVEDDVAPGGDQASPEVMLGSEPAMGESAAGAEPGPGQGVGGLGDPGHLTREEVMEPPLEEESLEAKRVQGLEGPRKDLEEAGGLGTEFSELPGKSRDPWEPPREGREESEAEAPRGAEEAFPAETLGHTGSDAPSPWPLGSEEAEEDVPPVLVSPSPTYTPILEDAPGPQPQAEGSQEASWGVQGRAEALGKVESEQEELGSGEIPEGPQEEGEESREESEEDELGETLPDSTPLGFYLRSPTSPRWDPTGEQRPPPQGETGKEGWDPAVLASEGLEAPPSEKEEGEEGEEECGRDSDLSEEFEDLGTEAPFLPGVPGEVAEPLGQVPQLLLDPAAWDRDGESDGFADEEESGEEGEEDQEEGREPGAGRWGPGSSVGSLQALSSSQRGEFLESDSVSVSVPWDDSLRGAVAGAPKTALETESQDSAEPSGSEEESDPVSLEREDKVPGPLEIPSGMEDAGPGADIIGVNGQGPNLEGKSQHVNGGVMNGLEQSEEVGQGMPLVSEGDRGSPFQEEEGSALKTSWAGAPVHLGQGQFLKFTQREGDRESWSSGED
# UniProt Q13232: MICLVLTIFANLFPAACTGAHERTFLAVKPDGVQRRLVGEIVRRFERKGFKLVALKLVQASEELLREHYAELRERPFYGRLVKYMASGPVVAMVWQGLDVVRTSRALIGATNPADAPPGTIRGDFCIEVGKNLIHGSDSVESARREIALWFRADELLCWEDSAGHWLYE
# UniProt P22392, whole entry, looked up: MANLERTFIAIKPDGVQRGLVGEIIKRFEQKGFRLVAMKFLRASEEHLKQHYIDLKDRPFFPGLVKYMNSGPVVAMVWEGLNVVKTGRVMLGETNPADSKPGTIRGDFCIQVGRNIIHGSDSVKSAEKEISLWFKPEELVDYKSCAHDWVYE
# UniProt P78316: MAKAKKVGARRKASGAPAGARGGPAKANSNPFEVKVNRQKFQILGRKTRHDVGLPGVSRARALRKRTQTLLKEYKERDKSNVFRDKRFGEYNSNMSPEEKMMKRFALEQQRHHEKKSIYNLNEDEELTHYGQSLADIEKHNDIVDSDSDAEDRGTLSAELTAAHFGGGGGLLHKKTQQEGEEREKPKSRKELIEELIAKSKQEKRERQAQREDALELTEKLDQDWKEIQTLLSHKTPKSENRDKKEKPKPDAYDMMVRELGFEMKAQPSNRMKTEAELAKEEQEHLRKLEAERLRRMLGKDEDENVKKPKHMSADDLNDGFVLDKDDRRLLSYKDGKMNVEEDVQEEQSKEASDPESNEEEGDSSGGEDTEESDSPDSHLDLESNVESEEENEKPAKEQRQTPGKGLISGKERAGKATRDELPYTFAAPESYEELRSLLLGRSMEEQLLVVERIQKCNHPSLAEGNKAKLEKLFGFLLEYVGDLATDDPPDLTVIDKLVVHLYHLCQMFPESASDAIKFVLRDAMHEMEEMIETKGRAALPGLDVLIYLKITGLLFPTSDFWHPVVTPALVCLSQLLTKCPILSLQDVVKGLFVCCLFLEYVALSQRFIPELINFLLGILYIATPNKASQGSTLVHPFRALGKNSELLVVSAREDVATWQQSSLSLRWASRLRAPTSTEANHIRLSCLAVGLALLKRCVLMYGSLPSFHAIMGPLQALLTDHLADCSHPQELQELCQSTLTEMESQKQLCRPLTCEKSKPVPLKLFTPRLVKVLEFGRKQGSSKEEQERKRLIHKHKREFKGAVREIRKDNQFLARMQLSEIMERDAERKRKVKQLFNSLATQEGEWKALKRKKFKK
# The other results are listed elsewhere or left out.
# What was measured:
# Assay in all cases: log2 fold change, soluble protein after heating vs DMSO (PISA); higher = thermal stabilisation; K562 cells, 10 uM, 30 min; active = over 0.2 and 3.5 SD of the protein, either way, in both replicates (recomputed)
# [1] = compound: NC(=O)Nc1cc(-c2cccc(F)c2)sc1C(=O)N[C@H]1CCCNC1
# Outline: (§1)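 Values are thermal stability changes relative to control samples and are taken from duplicates. They are stated as log2 fold changes. Before quantification by TMTpro 16plex LC-MS/MS with equalised channel sums, K562 cells at 2×10^6 cells/mL were treated with 10 μM compound for 30 min, heated in aliquots for 3 min across 48°C-58°C, pooled, extracted in PBS with 0.5% NP-40 at 4°C, and centrifuged at 21,000xg for 90 min to give the soluble supernatant.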
# [2] = compound: NC(=O)c1cnc(N[C@@H]2CCCC[C@@H]2N)nc1Nc1cccc(-n2nccn2)c1
# Outline: as §1
# [3] = compound: NC1(c2ccc(-c3nc4ccn5c(=O)[nH]nc5c4cc3-c3ccccc3)cc2)CCC1
# Outline: as §1
# [4] = compound: NCC(=O)Nc1ccc(-n2nc(C(F)(F)F)cc2-c2ccc3c(ccc4ccccc43)c2)cc1
# Outline: as §1
# [5] = compound: Nc1ccccc1NC(=O)c1ccc(CNC(=O)OCc2cccnc2)cc1 [entinostat]
# Outline: as §1
# [6] = compound: O=C(CCCCCCC(=O)Nc1ccccc1)NO [vorinostat]
# Outline: as §1
# [7] = compound: O=C(CCCCCCNC(=O)c1cnc(N(c2ccccc2)c2ccccc2Cl)nc1)NO [citarinostat]
# Outline: as §1
# [8] = compound: O=C(O)c1ccc2c(c1)nc(Nc1cccc(Cl)c1)c1ccncc12 [silmitasertib]
# Outline: as §1
# [9] = compound: O=C1NC(=O)C(c2cnc3ccccn23)=C1c1cn2c3c(cc(F)cc13)CN(C(=O)N1CCCCC1)CC2
# Outline: as §1
# [10] = compound: c1cc(OCCN2CCCCC2)cc(-c2n[nH]c3ccc(-c4nnc[nH]4)cc23)c1
# Outline: as §1
Target,log2 fold change [1],log2 fold change [2],log2 fold change [3],log2 fold change [4],log2 fold change [5],log2 fold change [6],log2 fold change [7],log2 fold change [8],log2 fold change [9],log2 fold change [10]
NOLC1 isoform 2 (UniProt Q14978),inactive: 0.149,inactive: -0.031,inactive: -0.011,inactive: 0.014,inactive: -0.043,inactive: 0.009,inactive: 0.109,inactive: -0.037,inactive: -0.037,inactive: -0.183
NEMF (UniProt O60524),inactive: 0.097,inactive: 0.045,inactive: 0.239,inactive: 0.098,inactive: 0.03,inactive: 0.015,inactive: -0.077,inactive: 0.164,inactive: 0.227,inactive: -0.243
NFIC (UniProt P08651),inactive: -0.06,inactive: 0.009,inactive: 0.092,inactive: 0.036,inactive: -0.159,inactive: 0.007,inactive: -0.083,inactive: 0.089,inactive: 0.021,inactive: -0.064
NOSIP (UniProt Q9Y314),inactive: 0,inactive: -0.004,inactive: -0.095,inactive: -0.121,inactive: 0.16,inactive: 0.163,inactive: 0.136,inactive: 0.082,inactive: -0.095,inactive: 0.019
NMD3 (UniProt Q96D46),inactive: -0.159,inactive: -0.034,inactive: -0.098,inactive: -0.037,inactive: -0.001,inactive: 0,inactive: 0.085,inactive: -0.048,inactive: -0.071,inactive: -0.047
NF1 (UniProt P21359),inactive: -0.211,inactive: 0.002,inactive: 0.002,inactive: -0.175,inactive: -0.064,inactive: -0.079,inactive: -0.216,inactive: 0.027,inactive: -0.215,inactive: -0.031
NSDHL (UniProt Q15738),inactive: -0.14,inactive: -0.061,inactive: 0.11,inactive: -0.033,inactive: -0.018,inactive: -0.04,inactive: 0.023,inactive: -0.023,inactive: -0.027,inactive: 0.02
NMT1 (UniProt P30419),inactive: -0.006,inactive: -0.043,inactive: -0.052,inactive: -0.129,inactive: 0.008,inactive: 0.031,inactive: -0.012,inactive: -0.015,inactive: 0.022,active: -0.52
NQO2 (UniProt P16083),inactive: 0.001,inactive: 0.002,inactive: 0.039,inactive: 0.031,inactive: 0.022,inactive: -0.04,inactive: 0.002,inactive: 0.016,inactive: -0.042,inactive: -0.007
NNT (UniProt Q13423),inactive: -0.007,inactive: -0.037,inactive: -0.062,inactive: -0.029,inactive: 0.006,inactive: 0.025,inactive: 0.018,inactive: -0.027,inactive: -0.041,inactive: 0.024
NFATC2 (UniProt Q13469),inactive: -0.076,inactive: -0.203,inactive: -0.064,inactive: -0.075,inactive: 0.147,inactive: -0.011,inactive: 0.101,inactive: -0.078,inactive: -0.062,inactive: -0.258
NMRAL1 (UniProt Q9HBL8),inactive: 0.391,active: 1.06,inactive: 0.717,inactive: -0.16,inactive: -0.052,inactive: -0.139,inactive: -0.151,inactive: 0.018,inactive: -0.005,inactive: 0.374
NFIA isoform 4 (UniProt Q12857),inactive: 0.025,inactive: -0.039,inactive: 0.021,inactive: 0.018,inactive: -0.046,inactive: -0.14,inactive: -0.109,inactive: 0.043,inactive: 0.028,inactive: -0.096
NFKBIE (UniProt O00221),inactive: 0.051,inactive: 0.052,inactive: -0.043,inactive: -0.073,inactive: 0.087,inactive: 0.035,inactive: 0.008,inactive: -0.04,inactive: -0.066,inactive: -0.019
NIF3L1 (UniProt Q9GZT8),inactive: -0.023,inactive: -0.007,inactive: 0.013,inactive: -0.002,inactive: -0.009,inactive: -0.092,inactive: -0.031,inactive: -0.003,inactive: -0.148,inactive: -0.037
NES (UniProt P48681),inactive: 0.072,inactive: -0.034,inactive: 0.007,inactive: 0.165,inactive: 0.084,inactive: -0.044,inactive: -0.123,inactive: 0.124,inactive: 0.029,inactive: -0.353
NOA1 (UniProt Q8NC60),inactive: -0.054,inactive: -0.17,inactive: 0.042,inactive: -0.159,inactive: -0.07,inactive: 0.033,inactive: 0.065,inactive: 0.022,inactive: 0.141,inactive: -0.082
NHEJ1 (UniProt Q9H9Q4),inactive: 0.025,inactive: 0.044,inactive: -0.195,inactive: -0.182,inactive: 0.005,inactive: 0.196,inactive: 0.082,inactive: 0.016,inactive: -0.03,inactive: 0.018
NPC1 (UniProt O15118),inactive: 0.002,inactive: 0.039,inactive: -0.196,inactive: -0.017,inactive: -0.049,inactive: 0.004,inactive: 0.017,inactive: 0.031,inactive: 0.027,inactive: -0.106
NME3 (UniProt Q13232),inactive: -0.003,inactive: -0.051,inactive: -0.048,inactive: 0.037,inactive: -0.064,inactive: -0.006,inactive: 0.003,inactive: 0.008,inactive: -0.009,inactive: 0.028
NHLRC2 (UniProt Q8NBF2),inactive: -0.077,inactive: -0.02,inactive: -0.171,inactive: -0.065,inactive: 0.009,inactive: 0.02,inactive: -0.007,inactive: 0.009,inactive: -0.063,inactive: -0.015
NOSTRIN isoform 4 (UniProt Q8IVI9),inactive: -0.057,inactive: -0.132,inactive: 0.101,–,inactive: 0.132,–,inactive: -0.021,inactive: 0.232,–,inactive: -0.062
NME2 isoform 2 (UniProt P22392),inactive: -0.024,inactive: -0.031,inactive: 0.051,inactive: -0.015,inactive: -0.048,inactive: -0.03,inactive: 0.027,inactive: 0.014,inactive: -0.04,inactive: -0.034
NOP14 (UniProt P78316),inactive: 0.088,inactive: -0.024,inactive: 0.181,inactive: 0.014,inactive: -0.073,inactive: 0.084,–,inactive: 0.088,inactive: 0.067,–
NIT1 (UniProt Q86X76),inactive: 0,inactive: 0.005,inactive: 0.04,inactive: -0.006,inactive: -0.017,inactive: 0.009,inactive: 0.036,inactive: 0.047,inactive: -0.056,inactive: -0.035
NHLRC3 (UniProt Q5JS37),inactive: 0.074,inactive: 0.089,inactive: -0.049,–,inactive: -0.055,inactive: 0.027,inactive: -0.021,inactive: -0.044,inactive: 0.091,inactive: 0.087
NOP2 isoform 4 (UniProt P46087),inactive: 0.205,inactive: 0.241,inactive: 0.408,inactive: 0.3,inactive: -0.163,inactive: 0.014,inactive: -0.04,inactive: 0.288,inactive: 0.344,inactive: -0.095
NEK9 (UniProt Q8TD19),inactive: -0.024,inactive: -0.041,inactive: -0.096,inactive: -0.02,inactive: 0.006,inactive: 0.057,inactive: -0.001,inactive: -0.003,inactive: -0.01,inactive: -0.011

# Shown with tabs: entries from further up
Target	log2 fold change [1]	log2 fold change [2]	log2 fold change [3]	log2 fold change [4]	log2 fold change [5]	log2 fold change [6]	log2 fold change [7]	log2 fold change [8]	log2 fold change [9]	log2 fold change [10]
NOSTRIN isoform 4 (UniProt Q8IVI9)	inactive: -0.057	inactive: -0.132	inactive: 0.101	–	inactive: 0.132	–	inactive: -0.021	inactive: 0.232	–	inactive: -0.062
NME2 isoform 2 (UniProt P22392)	inactive: -0.024	inactive: -0.031	inactive: 0.051	inactive: -0.015	inactive: -0.048	inactive: -0.03	inactive: 0.027	inactive: 0.014	inactive: -0.04	inactive: -0.034
